According to PubChem BioAssay AID1508600 (Functional Genomics Laboratory (NCATS/FGL), 2020):
The whole screen tested about 53,000 sequences, of which about 3,700 (7%) were called active.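 Rule for the calls: active = gene knockdowns whose robust z-score for IL-1 alpha signal is at least 2 or at most -2, so actives lie on both sides; inactive = the rest.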 This is one part of the list.

experiment: Components of the Cytosolic LPS Sensing Pathway: Gene Identification via Genome-wide siRNA Screen; details: RAW264.7 macrophages, IL-1a HTRF, actives lie on both sides, screened at 100 nM (by protocol), cells primed 5 h with Pam3CSK4 first;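 note: robust z of the log signal after scaling to non-targeting control siRNA wells of the plate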
How it was run: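 Cells (RAW264.7, 1×10^4 per well) were transfected with siRNA at 100 nM and cultured 48h at 37 degrees C. Pam3CSK4 was added for 5 hours; LipidA transfection followed for 24 hour. IL-1a was then measured by HTRF.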

Sequence	z-score
GCUGAUACACAGACAUACCTT against Erh	inactive: -0.356
GGGACUAAUGUUUUGCCUATT against Krt16	active: -2.62
GCUGGAAACCCGUAUACUATT against Krt23	active: 2.16
GGCUGGGUAAAACCCAUCATT against Idh1	inactive: -0.207
GGUAGACAACUGGAUAAAUTT against Gpnmb	inactive: -0.445
GAUCUGGUAUGUUUGUGACTT against Olfr1414	inactive: -1.14
GGGCAAGAAAUCAAGGUUUTT against Krtap3-2	inactive: 0.249
GGCUCUAACAGCUACAUGUTT against Hspb7	active: -2.21
CGAACUUGGUUUAAGCAAUTT against Gstcd	inactive: -0.453
GGACAGUUGUCAUUGGCAUTT against Daglb	inactive: -1.21
GGUACACUUUGUGCCUGGCTT against Iars2	inactive: -0.615
GGACGUGAGCUCCAUCAUUTT against Sypl2	inactive: 1.32
GGACAAUUGCCUUUUGACATT against Thbs3	inactive: 0.146
GAAUCAUGAUAGAAUGCAUTT against AI987944	inactive: -0.135
CGUCAAGCGAGGAAACUCUTT against Pifo	inactive: -1.54
GGACCAAAAGGAAAAUCCATT against Kcnj6	inactive: -1.05
CCAGUCCUACUUAGCAAAGTT against Lrrc75a	inactive: -1.48
CCAGUCAUCAUGCUACACGTT against Slc19a3	inactive: 0.473
CCUUGUCCUAUGUUAGGCATT against Ccdc85a	inactive: 0.401
GGCUUUGAGCAUGUUUUCATT against Hspb7	active: 7.14
CCUAUUGAAUUGACCCUAATT against Muc20	inactive: 0.236
GAACCCAGAUCUGCACAACTT against Sox17	inactive: 1.51
GUUGGUAGAUUCAGUUUUCTT against Vmn1r89	inactive: 1.88

Sequence	z-score
GGUCCUUAGGUGACCUCCUTT against Lrrc20	inactive: -0.249
GGAUAUCGUUGUUUCUGAGTT against Lmbr1	inactive: -1
GGGCAUAAAAUCAUUGCCUTT against Tigd4	inactive: -1.43
GCAAAACGAUGACUCGGAGTT against Lhx4	inactive: 0.755
GGUGGAGAUUGUUUGUAAATT against Lratd1	inactive: 1.56
GCAAGUGCCUAGAGUCUCATT against Crat	inactive: -0.291
GGAAGUCUCUUAGACUACCTT against Fbxo36	inactive: 1.11
GCAGCGAUGUACAAUCCAATT against Opn5	inactive: 0.816
GGUGAUUGAGUUGGAGAGGTT against Nkx3-1	inactive: -0.743
GCAUGAUCCAGCUUUCUAGTT against Bard1	inactive: -1.24
GCACGUAUACUAAAAUUGGTT against Rnf225	inactive: -1.21
GGUUCAGUCAGUCAGUAUCTT against Srst	inactive: -1.47
GGAUGAAGAUACGAUUGAUTT against Sumo2	inactive: -0.0166
CGGGACAUUAGUCAUUAAATT against Pcdha5	inactive: -0.78
GGCGAUCUUUGGAAUUAGATT against Ing3	inactive: 0.209
GGAAAAAUAGCAUACCGAATT against Bphl	inactive: 0.172
GGAAUCUGAAUUUUUGUGUTT against Commd1	inactive: -0.576
GCUUAGAAAUGUGAUCCAUTT against Rex2	inactive: -0.388
GCCGAAGAGAUCAACACCATT against Onecut3	inactive: 1.92
GGUCUACAUUGAUCCUUUUTT against Ephb4	inactive: -1.22
GGGUUAAAGCGGUUUACUUTT against Kcng3	active: 2.72
GCAUGACAUAUAGUACAAUTT against Teddm1b	inactive: -0.402
GCUGAAAACUGCUUGCUCCTT against Onecut3	inactive: 1.18

Sequence	z-score
CGUAUUCAACCUUCAUAGATT against Cabcoco1	inactive: -0.145
GUUUGAUGUCUGUCUAACATT against Olfr608	inactive: -0.104
GUCAGAUGAUUCUAUUCUCTT against Rps21	inactive: 0.0243
GGGAAAACAGCCCUUUCAUTT against Slc12a7	inactive: -1.38
CCUCAUGGCCAAUUUGCACTT against Plekhg5	inactive: -0.713
GCGAGGUGUCUCUAUCAACTT against Mrpl11	active: 3.37
GGCUCAUUGUAGCAAAUUATT against Wdr44	inactive: -0.452
GGUUAAGGAAUAGUAACUCTT against Ehbp1l1	inactive: 0.931
GGACAAAGAUAAAGAAGAUTT against Lsp1	inactive: -0.738
GGCUCUAUGAGUCUACCUATT against Cdx1	inactive: 0.547
GAGGGUGUGCAUUCUUCUATT against Olfr1242	inactive: -0.766
GGCUGGACAGGAUUAUCCATT against Tmem185b	inactive: -0.904
GGGAAUCUUGUUAUAAGGGTT against Vmn1r69	inactive: 0.0276
GGAUGUAACUAGUAACUUUTT against Kcnn3	inactive: 0.108
GCUACCCUCGUUGUUGACATT against Hcrtr2	inactive: -0.559
GGGUCAACCCGAUAUUACCTT against Kcnh7	inactive: 0.0824
GGAAAUGGUUCUAACAAAATT against Cpa5	inactive: 0.933
GGGAUAUUGAGGAAGGUAUTT against Eda2r	inactive: -0.842
CCUGUUUGUACUACUCUUUTT against Krt84	inactive: 0.997
GCAUGAGUAUUCCAAGGAGTT against Arhgef7	active: -2.36
GGUCAGAGGGCGAAUUAAATT against Akap4	inactive: 0.0419
CGGGCACUUAAGUUUCCAGTT against Nfix	inactive: 1.44

Retrieved one by one from the entries so far (3):
Sequence	z-score
GGUCAGAGGGCGAAUUAAATT against Akap4	inactive: 0.0419
GGCUGGACAGGAUUAUCCATT against Tmem185b	inactive: -0.904
GGUUAAGGAAUAGUAACUCTT against Ehbp1l1	inactive: 0.931
